# Experimental data: the supplement of paper PMC8728848
# This is one part of the list.
# Assays:
# Assay in all cases: glycan array binding signal (z-score within array); higher = stronger binding
# Settings in all cases: glycan notation: IUPAC condensed, linker removed
# [1] = target: GalNAc(b1-3)Gal
# Method in brief: (§1)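 The Consortium for Functional Glycomics database supplied 3228 glycan arrays, of which those lacking an available protein sequence were dropped. The binding signal, a within-array Z-score, was averaged across arrays of the same protein sequence and across linkers. Negative scores can be read as non-binding.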
# [2] = target: GalNAc(b1-3)Gal(a1-4)Gal(b1-4)GlcNAc
# Method in brief: as §1
# [3] = target: GalNAc(b1-3)Gal(a1-4)Gal(b1-4)GlcNAc(b1-3)Gal(b1-4)Glc
# Method in brief: as §1
# [4] = target: GalNAc(b1-3)Gal(a1-6)Gal(b1-4)Glc
# Method in brief: as §1
# [5] = target: GalNAc(b1-3)GalNAc
# Method in brief: as §1
# [6] = target: GalNAc(b1-3)GlcNAc
# Method in brief: as §1
# [7] = target: GalNAc(b1-4)Gal(b1-4)Glc
# Method in brief: as §1
# [8] = target: GalNAc(b1-4)GlcNAc
# Method in brief: as §1
# [9] = target: GalNAc(b1-4)GlcNAc(b1-2)Man
# Method in brief: as §1
# [10] = target: GalNAc(b1-4)GlcNAc(b1-2)Man(a1-3)[GalNAc(b1-4)GlcNAc(b1-2)Man(a1-6)]Man(b1-4)GlcNAc(b1-4)GlcNAc
# Method in brief: as §1
# [11] = target: GalNAc(b1-4)GlcNAc(b1-3)GalNAc(b1-4)GlcNAc
# Method in brief: as §1
# [12] = target: GalNAc(b1-4)GlcNAc6S
# Method in brief: as §1
# [13] = target: GalNAc(b1-6)GalNAc
# Method in brief: as §1
# [14] = target: GalNAc3S(b1-4)GlcNAc
# Method in brief: as §1
# [15] = target: GalNAc3S(b1-4)GlcNAc3S
# Method in brief: as §1
# [16] = target: GalNAc3S(b1-4)[Fuc(a1-3)]GlcNAc
# Method in brief: as §1
# [17] = target: GalNAc4S6S(b1-4)GlcNAc
# Method in brief: as §1
# [18] = target: GalNAc6S(b1-4)GlcNAc
# Method in brief: as §1
# [19] = target: Glc(a1-4)Glc
# Method in brief: as §1
# [20] = target: Glc(a1-4)Glc(a1-4)Glc(a1-4)Glc
# Method in brief: as §1
# [21] = target: Glc(a1-6)Glc(a1-6)Glc
# Method in brief: as §1
# [22] = target: Glc(a1-6)Glc(a1-6)Glc(a1-6)Glc
# Method in brief: as §1
# [23] = target: Glc(b1-4)Glc
# Method in brief: as §1
# [24] = target: Glc(b1-6)Glc
# Method in brief: as §1
# [25] = target: GlcA(b1-3)Gal
# Method in brief: as §1
# [26] = target: GlcA(b1-3)GlcNAc
# Method in brief: as §1
# [27] = target: GlcA(b1-6)Gal
# Method in brief: as §1
# [28] = target: GlcA3S(b1-3)Gal(b1-4)GlcNAc(b1-2)Man
# Method in brief: as §1
# [29] = target: GlcA3S(b1-3)Gal(b1-4)GlcNAc(b1-3)Gal(b1-4)Glc
# Method in brief: as §1
# [30] = target: GlcNAc(a1-3)Gal(b1-4)GlcNAc
# Method in brief: as §1
# [31] = target: GlcNAc(a1-4)Gal(b1-3)GlcNAc
# Method in brief: as §1
# [32] = target: GlcNAc(a1-4)Gal(b1-4)GalNAc
# Method in brief: as §1
# [33] = target: GlcNAc(a1-4)Gal(b1-4)GlcNAc
# Method in brief: as §1
# [34] = target: GlcNAc(a1-4)Gal(b1-4)GlcNAc(b1-3)Gal(b1-4)Glc
# Method in brief: as §1
# [35] = target: GlcNAc(a1-4)Gal(b1-4)GlcNAc(b1-3)Gal(b1-4)GlcNAc
# Method in brief: as §1
# [36] = target: GlcNAc(a1-4)Gal(b1-4)GlcNAc(b1-3)Gal(b1-4)GlcNAc(b1-3)Gal(b1-4)GlcNAc
# Method in brief: as §1
# [37] = target: GlcNAc(a1-4)Gal(b1-4)GlcNAc(b1-3)Gal(b1-4)[Fuc(a1-3)]GlcNAc(b1-3)Gal(b1-4)[Fuc(a1-3)]GlcNAc
# Method in brief: as §1
# [38] = target: GlcNAc(a1-6)Gal(b1-4)GlcNAc
# Method in brief: as §1
binder,measurement,setting,value
PX9937I-bfa-538-26-538 (Bacteroides fragilis) (protein) DKLDLSPIDYYGSGSYWKTEAQATAYIDGIHKHLRDAAWQHTITFGELRGGRFITGASSDGMGVSNGDIILQNFDETHTGVSKFGDLFGRITNLNLFIARVTDATYLSDEMKNFYLGEVYGLRAFYYFDLYRIYGGVPLRLTADVVEGVIDPNKLYMARSTPKEVMTQIKSDLNKSMEYFGNMNDFDPYKRGKKVYWSKAATECLMGEVYLWTSKVTTGDDVANPADLTIAKTHLESVLNNYNLKMLDDFSQVFNAKNKANDEIIFAIRFLEGEATNSNGTFTYNVGTGSTKNRYQANGEVFGDALDIQNTGNQTYEYNKAVYQNFDDADTRKEATFIASYNKDGKTGELSLYGTHVRKNIGYVNAQGARVYCGDYIFYRLPWVYLTLAEIANMEGDNAAVAKYINLVRKRAYGNAWDETLYAYPETADFTTNELAILHEKDKEFIQEGQRWWDLRRMTLTKGGTPLVFCKEGSLLGDAPILNKSTEAHKLLWPIEKTMLNKDPALEQTPGYK,glycan array binding signal (z-score),[1],-0.667
same,glycan array binding signal (z-score),[2],-0.278
same,glycan array binding signal (z-score),[3],-0.205
same,glycan array binding signal (z-score),[4],-0.495
same,glycan array binding signal (z-score),[5],-0.7
same,glycan array binding signal (z-score),[6],0.267
same,glycan array binding signal (z-score),[7],0.518
same,glycan array binding signal (z-score),[8],-0.824
same,glycan array binding signal (z-score),[9],0.041
same,glycan array binding signal (z-score),[10],-0.139
same,glycan array binding signal (z-score),[11],-1.12
same,glycan array binding signal (z-score),[12],0.142
same,glycan array binding signal (z-score),[13],-0.464
same,glycan array binding signal (z-score),[14],-0.271
same,glycan array binding signal (z-score),[15],-1.26
same,glycan array binding signal (z-score),[16],-0.573
same,glycan array binding signal (z-score),[17],-0.708
same,glycan array binding signal (z-score),[18],-0.41
same,glycan array binding signal (z-score),[19],-0.431
same,glycan array binding signal (z-score),[20],-0.521
same,glycan array binding signal (z-score),[21],-0.812
same,glycan array binding signal (z-score),[22],-0.421
same,glycan array binding signal (z-score),[23],-0.101
same,glycan array binding signal (z-score),[24],0.338
same,glycan array binding signal (z-score),[25],-0.8
same,glycan array binding signal (z-score),[26],0.211
same,glycan array binding signal (z-score),[27],-0.593
same,glycan array binding signal (z-score),[28],-0.243
same,glycan array binding signal (z-score),[29],0.018
same,glycan array binding signal (z-score),[30],0.271
same,glycan array binding signal (z-score),[31],-0.566
same,glycan array binding signal (z-score),[32],-0.153
same,glycan array binding signal (z-score),[33],-0.808
same,glycan array binding signal (z-score),[34],-0.307
same,glycan array binding signal (z-score),[35],-1.24
same,glycan array binding signal (z-score),[36],-0.238
same,glycan array binding signal (z-score),[37],0.808
same,glycan array binding signal (z-score),[38],-1.13

# Copied from the results shown (eight entries):
binder,measurement,setting,value
PX9937I-bfa-538-26-538 (Bacteroides fragilis) (protein) DKLDLSPIDYYGSGSYWKTEAQATAYIDGIHKHLRDAAWQHTITFGELRGGRFITGASSDGMGVSNGDIILQNFDETHTGVSKFGDLFGRITNLNLFIARVTDATYLSDEMKNFYLGEVYGLRAFYYFDLYRIYGGVPLRLTADVVEGVIDPNKLYMARSTPKEVMTQIKSDLNKSMEYFGNMNDFDPYKRGKKVYWSKAATECLMGEVYLWTSKVTTGDDVANPADLTIAKTHLESVLNNYNLKMLDDFSQVFNAKNKANDEIIFAIRFLEGEATNSNGTFTYNVGTGSTKNRYQANGEVFGDALDIQNTGNQTYEYNKAVYQNFDDADTRKEATFIASYNKDGKTGELSLYGTHVRKNIGYVNAQGARVYCGDYIFYRLPWVYLTLAEIANMEGDNAAVAKYINLVRKRAYGNAWDETLYAYPETADFTTNELAILHEKDKEFIQEGQRWWDLRRMTLTKGGTPLVFCKEGSLLGDAPILNKSTEAHKLLWPIEKTMLNKDPALEQTPGYK,glycan array binding signal (z-score),[28],-0.243
same,glycan array binding signal (z-score),[29],0.018
same,glycan array binding signal (z-score),[30],0.271
same,glycan array binding signal (z-score),[31],-0.566
same,glycan array binding signal (z-score),[32],-0.153
same,glycan array binding signal (z-score),[33],-0.808
same,glycan array binding signal (z-score),[34],-0.307
same,glycan array binding signal (z-score),[35],-1.24
